The text below walks through data of article PMC4154131, “Molecular pathogenesis of Spondylocheirodysplastic Ehlers-Danlos syndrome caused by mutant ZIP13 proteins” (EMBO Molecular Medicine, 2014).

For this test, the target named is T1, N-terminally 3xFLAG-tagged wild-type ZIP13 (human) (UniProt Q96H72).
T1 sequence: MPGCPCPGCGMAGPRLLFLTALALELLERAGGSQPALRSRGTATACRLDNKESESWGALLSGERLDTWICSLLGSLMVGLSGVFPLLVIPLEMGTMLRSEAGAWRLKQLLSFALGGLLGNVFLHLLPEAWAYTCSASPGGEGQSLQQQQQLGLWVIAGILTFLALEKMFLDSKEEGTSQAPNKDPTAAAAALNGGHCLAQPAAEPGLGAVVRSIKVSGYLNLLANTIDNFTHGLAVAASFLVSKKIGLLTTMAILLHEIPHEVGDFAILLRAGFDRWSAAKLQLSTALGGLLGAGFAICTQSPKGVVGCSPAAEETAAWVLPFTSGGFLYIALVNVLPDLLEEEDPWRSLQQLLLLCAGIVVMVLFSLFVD
The test is described as follows: affinity purification with mass spectrometry; lysates of 293T cells transfected with FLAG-tagged ZIP13, immunoprecipitated with anti-FLAG antibody; SDS-PAGE, silver staining, unique bands cut out and analysed by TOF/MASS.

Results are given in words; binding and its absence hold for the method and conditions named. In cells and extracts the contact can be indirect. These calls come from enrichment with a bait or labelling near it, and not all partners need be listed. Where a sequence is shown, tags or fusion partners need not be part of it.

Consider “valosin-containing protein (VCP) (from UniProt P55072 1-806)”, for which the binding entry was “binds”.
